Residue numbers refer to the chain shown, from its start. Read-outs that look alike come from different tables or passages of the source. These are yes or no findings as the source states them, for the method shown. Binding seen in cells or lysates may run through a third protein. Binding calls can cover weak binding; strength is not graded here. Tags and fused reporters may be left off the sequences shown.
Tests used:
Assay in all cases: co-IP
[1] = target: T1, GFP-tagged wild-type COA8 (human) (UniProt Q96IL0)
T1 sequence: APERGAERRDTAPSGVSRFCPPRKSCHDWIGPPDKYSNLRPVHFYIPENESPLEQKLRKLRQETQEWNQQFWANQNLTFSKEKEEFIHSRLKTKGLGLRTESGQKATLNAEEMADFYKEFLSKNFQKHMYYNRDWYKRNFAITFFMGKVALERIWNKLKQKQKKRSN

[2] = target: T2, GFP-tagged COA8 W174A variant (human) (UniProt Q96IL0)
T2 sequence: T1 sequence with W135A

[3] = target: T1, GFP-tagged wild-type COA8 (human); remark: listed apart in the source

- binding [1]: binds
- binding [2]: binds
- binding [3]: binds
Substance: COX10, heme O synthase (enzyme)

From publication doi:10.1101/2024.04.02.587738
